Reference: the supplement of paper PMC7125110
± gives the standard error. Many entries were measured with a wide error.

B1: glmS ribozyme (parent)
chain: AUAAAAGCGCCAGAACUACAGAAAUGUAGUUGACGAGGAGGAGGUUUAUCGAAUUUUCGGCGGAUGCCUCCAAA

Variants of: B1
Assay: KM; higher = weaker cofactor use; RNA array
Settings: with glucosamine-6-phosphate
Procedure, shortened: (§1)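 The measurements used barcoded ribozyme variants on sequenced MiSeq chips, transcribed in situ by E. coli RNA polymerase and tracked at 37 °C with a hybridised Cy3 probe. Glucosamine-6-phosphate, 40 μM to 10 mM in HEPES/KCl/Mg(OAc)2 buffer, was flowed in while tiles were imaged over ~14 h. Baseline-normalised signals, also normalised to non-cleaving reference variants, gave per-tile medians that were fit to one- or two-exponential decays for kobs. kcat and KM resulted from weighted Michaelis–Menten fits across concentrations.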

Variant	KM
G40A C68U	879 ± 770 µM
G40A C70G	1280 ± 660 µM
G40A G44C	2680 ± 1100 µM
G40A U45A	510 ± 160 µM
G40A U45G	58.1 ± 46 µM
G40A U46A	1860 ± 1100 µM
G40A U47A	1440 ± 270 µM
G40A U54G	244 ± 190 µM
G40C A53C	2240 ± 110 µM
G40C C67A	603 ± 410 µM
G40C C71A	1710 ± 940 µM
G40C U46A	1370 ± 880 µM
G40C U49G	1460 ± 1400 µM
G40C U55G	662 ± 360 µM
G40U A53U	1300 ± 390 µM
G40U C67A	962 ± 960 µM
G40U C70G	1770 ± 560 µM
G40U U65C	436 ± 380 µM
G40U U65G G66U	561 ± 460 µM
G40U U69C	309 ± 280 µM
G41A	2940 ± 1900 µM
G41A A48U	585 ± 570 µM
G41A A53C	1730 ± 1200 µM
G41A A53U U54G	357 ± 330 µM

Variant	KM
G41A C71A	645 ± 210 µM
G41A U55G	229 ± 130 µM
G41C A53G	940 ± 530 µM
G41C A53U	1290 ± 380 µM
G41C C70U	931 ± 570 µM
G41C C71G	1150 ± 1000 µM
G41C U46G	2060 ± 210 µM
G41C U47G	50700 ± 23000 µM
G41C U54C	1000 ± 590 µM
G41C U55A	1280 ± 280 µM
G41C U55C	2540 ± 1400 µM
G41U	1300 ± 760 µM
G41U A42G	1240 ± 450 µM
G41U A53G	291 ± 120 µM
G41U C58A	5230 ± 3800 µM
G41U C68U	32200 ± 7100 µM
G41U C70U	39.4 ± 20 µM
G41U G66A	1820 ± 560 µM
G41U U45C	1140 ± 210 µM
G41U U47C	1250 ± 1100 µM
G41U U55A	170 ± 100 µM
G41U U56A C70A	1590 ± 970 µM
G41U U69C	876 ± 520 µM
A42C C67G	2420 ± 1900 µM

Retrieved one by one from the list above:
Variant	KM
G40U U65C	436 ± 380 µM
G41U	1300 ± 760 µM
G41A	2940 ± 1900 µM
G40C U55G	662 ± 360 µM

Additional records follow:

Variant	KM
A42C G62A	346 ± 220 µM
A42C U56C	268 ± 230 µM
A42C U56G	4130 ± 120 µM
A42G A53U	2240 ± 990 µM
A42G C50U	5810 ± 1200 µM
A42G C67A	524 ± 310 µM
A42G C67U	343 ± 200 µM
A42G C70G	261 ± 120 µM
A42G G44A	2550 ± 2000 µM
A42G U46A	1200 ± 320 µM
A42G U54A	784 ± 450 µM
A42U A53C	3050 ± 1500 µM
A42U C70A	813 ± 290 µM
G43A U45G C58G	199 ± 61 µM
G43C C68U	1370 ± 190 µM
G43U A53G	793 ± 120 µM
G43U A53U	2760 ± 880 µM
G43U C68G	527 ± 180 µM
G43U U54A U55A C67G C68U	10700 ± 7700 µM
G43U U56A	3380 ± 2200 µM
G43U U56C	211 ± 110 µM
G43U U65G	2380 ± 190 µM
G44A A53C	1690 ± 1200 µM

Variants of: B1
Assay: self-cleavage kobs at 40 uM GlcN6P; higher = faster cleavage; RNA array
Settings: with glucosamine-6-phosphate
Procedure, shortened: as §1

Variant	self-cleavage kobs at 40 uM GlcN6P
G40A C70G	2.41e-05 ± 2.3e-05 s⁻¹
G40C A53C	1.45e-05 ± 8.6e-06 s⁻¹
G40C U55G	2.42e-05 ± 1.2e-05 s⁻¹
G41A U55G	2.58e-05 ± 1.7e-05 s⁻¹
G41C A53G	3.49e-05 ± 1.9e-05 s⁻¹
G41C A53U	1.63e-05 ± 1.6e-05 s⁻¹
G43C C68U	1.53e-05 ± 1.2e-05 s⁻¹

Variants of: B1
Assay: self-cleavage kobs at 160 uM GlcN6P; higher = faster cleavage; RNA array
Settings: with glucosamine-6-phosphate
Procedure, shortened: as §1

Variant	self-cleavage kobs at 160 uM GlcN6P
G40A C70G	2.43e-05 ± 1.6e-05 s⁻¹
G40A U46A	2.53e-05 ± 1.7e-05 s⁻¹
G41C A53U	3.01e-05 ± 1.8e-05 s⁻¹
G41U U47C	2.95e-05 ± 2.9e-05 s⁻¹

Variants of: B1
Assay: self-cleavage kobs at 640 uM GlcN6P; higher = faster cleavage; RNA array
Settings: with glucosamine-6-phosphate
Procedure, shortened: as §1

Variant	self-cleavage kobs at 640 uM GlcN6P
G40U U65C	3.05e-05 ± 1.9e-05 s⁻¹
G41C U46G	2.3e-05 ± 1.9e-05 s⁻¹
G41C U55A	2.6e-05 ± 2.5e-05 s⁻¹
G41C U55C	2.73e-05 ± 1.6e-05 s⁻¹

Variants of: B1
Assay: self-cleavage kobs at 10000 uM GlcN6P; higher = faster cleavage; RNA array
Settings: with glucosamine-6-phosphate
Procedure, shortened: as §1

Variant	self-cleavage kobs at 10000 uM GlcN6P
G41U C68U	1.23e-05 ± 7.7e-06 s⁻¹
G41U U69C	3.6e-05 ± 2e-05 s⁻¹
G43A U45G C58G	2.83e-05 ± 1.7e-05 s⁻¹
G43U A53G	4.36e-05 ± 2.3e-05 s⁻¹
G43U A53U	2.07e-05 ± 1.5e-05 s⁻¹

Variants of: B1
Assay: self-cleavage kobs at 2500 uM GlcN6P; higher = faster cleavage; RNA array
Settings: with glucosamine-6-phosphate
Procedure, shortened: as §1

Variant	self-cleavage kobs at 2500 uM GlcN6P
A42G U46A	0.00194 ± 0.001 s⁻¹
A42G U54A	0.0466 ± 0.03 s⁻¹
G43A U45G C58G	2.54e-05 ± 1.6e-05 s⁻¹
G43U U54A U55A C67G C68U	3.17e-05 ± 2.5e-05 s⁻¹
G43U U65G	2.27e-05 ± 1.7e-05 s⁻¹
